No constants are given. Whether binding was seen depends on the method and setting. Some results given as binding are weak or reduced against the parent protein; the word gives no strength. Where a sequence is shown, tags or fusion partners need not be part of it.
B1: T25 fused to N-terminus of UgtP (enzyme, UniProt Q2FZP7 1-391)
chain: MVTQNKKILIITGSFGNGHMQVTQSIVNQLNDMNLDHLSVIEHDLFMEAHPILTSICKKWYINSFKYFRNMYKGFYYSRPDKLDKCFYKYYGLNKLINLLIKEKPDLILLTFPTPVMSVLTEQFNINIPVATVMTDYRLHKNWITPYSTRYYVATKETKQDFIDVGIDPSTVKVTGIPIDNKFETPINQKQWLIDNNLDPDKQTILMSAGAFGVSKGFDTMITDILAKSANAQVVMICGKSKELKRSLTAKFKSNENVLILGYTKHMNEWMASSQLMITKPGGITITEGFARCIPMIFLNPAPGQELENALYFEEKGFGKIADTPEEAIKIVASLTNGNEQLTNMISTMEQDKIKYATQTICRDLLDLIGHSSQPQEIYGKVPLYARFFVK

By UniProt entry, the sequences of proteins in these tests, tags left out. Residues count along the entry.
UniProt Q2FVZ6, residues 2-84: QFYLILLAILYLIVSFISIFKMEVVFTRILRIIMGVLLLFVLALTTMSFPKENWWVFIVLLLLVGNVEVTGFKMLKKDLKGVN
UniProt Q2FZP8: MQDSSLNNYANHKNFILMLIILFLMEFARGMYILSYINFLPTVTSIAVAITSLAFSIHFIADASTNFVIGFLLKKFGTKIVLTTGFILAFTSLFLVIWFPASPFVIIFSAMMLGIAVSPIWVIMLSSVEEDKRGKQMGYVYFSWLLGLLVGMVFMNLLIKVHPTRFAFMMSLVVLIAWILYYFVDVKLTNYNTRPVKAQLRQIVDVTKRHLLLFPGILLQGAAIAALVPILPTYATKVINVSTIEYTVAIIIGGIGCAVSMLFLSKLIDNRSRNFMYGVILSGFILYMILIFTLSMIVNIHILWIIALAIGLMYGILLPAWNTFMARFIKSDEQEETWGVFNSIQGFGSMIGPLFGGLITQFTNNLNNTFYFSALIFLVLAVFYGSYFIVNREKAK
UniProt Q2G093: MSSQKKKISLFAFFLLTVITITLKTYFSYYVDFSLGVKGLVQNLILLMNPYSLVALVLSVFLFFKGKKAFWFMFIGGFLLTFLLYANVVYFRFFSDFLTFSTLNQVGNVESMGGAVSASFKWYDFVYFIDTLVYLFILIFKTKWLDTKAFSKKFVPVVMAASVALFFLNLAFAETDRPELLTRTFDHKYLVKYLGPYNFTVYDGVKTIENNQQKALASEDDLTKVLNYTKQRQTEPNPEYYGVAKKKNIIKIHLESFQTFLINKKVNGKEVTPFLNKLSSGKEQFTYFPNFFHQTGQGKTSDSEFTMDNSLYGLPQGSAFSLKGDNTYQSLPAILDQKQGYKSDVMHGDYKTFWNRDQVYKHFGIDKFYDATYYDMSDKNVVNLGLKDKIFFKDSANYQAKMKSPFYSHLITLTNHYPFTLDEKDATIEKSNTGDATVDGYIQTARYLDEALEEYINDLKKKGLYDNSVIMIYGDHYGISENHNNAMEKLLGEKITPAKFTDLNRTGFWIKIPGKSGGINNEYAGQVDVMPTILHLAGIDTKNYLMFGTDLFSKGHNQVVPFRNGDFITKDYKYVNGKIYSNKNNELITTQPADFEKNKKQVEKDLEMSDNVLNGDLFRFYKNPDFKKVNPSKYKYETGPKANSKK

target: MspA amino acids 2-84 with T18 tag fused at the C-terminus (S. aureus) (UniProt Q2FVZ6); experiment: two-hybrid; bacterial two-hybrid (BACTH), T25 and T18 fusions co-transformed in E. coli BTH101; dotted on LB with X-gal and 1-mM IPTG, 30°C for 24 h; three replicates

Question: How did the binding turn out when “T25 fused to N-terminus of LtaA (from UniProt Q2FZP8 1-396)” was run?
Answer: binds

Question: With “T25 fused to N-terminus of LtaS (from UniProt Q2G093 1-646) (enzyme)” as the molecule, how does the binding read?
Answer: binds

Question: With B1 as the molecule, how does the binding read?
Answer: binds

Source: paper PMC11323550
